From PMC5503513

By UniProt entry, the sequences of proteins in these tests, tags left out. Residues count along the entry.
UniProt P09651, 2-196 R140A: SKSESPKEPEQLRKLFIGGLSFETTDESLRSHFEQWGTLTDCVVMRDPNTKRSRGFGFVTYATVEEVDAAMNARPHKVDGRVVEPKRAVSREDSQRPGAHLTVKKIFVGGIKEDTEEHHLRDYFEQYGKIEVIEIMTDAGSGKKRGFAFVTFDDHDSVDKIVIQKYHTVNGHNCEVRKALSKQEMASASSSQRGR
UniProt P09651, 2-196: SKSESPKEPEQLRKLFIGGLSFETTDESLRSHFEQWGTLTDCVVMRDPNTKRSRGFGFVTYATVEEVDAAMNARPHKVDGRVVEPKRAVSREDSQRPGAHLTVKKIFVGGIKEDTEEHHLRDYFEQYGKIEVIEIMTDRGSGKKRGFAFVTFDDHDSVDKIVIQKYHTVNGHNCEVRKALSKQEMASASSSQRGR
UniProt P09651, 1-196: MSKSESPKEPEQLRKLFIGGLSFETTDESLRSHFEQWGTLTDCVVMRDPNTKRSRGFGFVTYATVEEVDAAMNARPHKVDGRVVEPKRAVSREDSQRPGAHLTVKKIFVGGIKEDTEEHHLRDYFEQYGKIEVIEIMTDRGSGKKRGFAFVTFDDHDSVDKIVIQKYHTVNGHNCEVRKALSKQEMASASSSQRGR
UniProt P09651, 2-97: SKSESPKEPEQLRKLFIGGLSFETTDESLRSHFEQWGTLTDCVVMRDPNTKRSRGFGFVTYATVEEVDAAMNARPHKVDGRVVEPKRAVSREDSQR
UniProt P09651, 2-97 R55A: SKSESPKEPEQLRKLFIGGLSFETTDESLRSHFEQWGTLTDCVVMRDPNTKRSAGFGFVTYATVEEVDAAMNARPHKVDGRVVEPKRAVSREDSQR
UniProt P09651, 2-97 R92A: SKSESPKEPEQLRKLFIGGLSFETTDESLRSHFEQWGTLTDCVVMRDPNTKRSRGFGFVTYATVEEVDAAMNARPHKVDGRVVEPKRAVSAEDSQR

Legend:
[1] = molecular target: hnRNP A1 UP1 R140A (Homo sapiens) (UniProt P09651); experiment: NMR; conditions: 10 mM sodium phosphate pH 6.5, 1 mM DTT, protein at 0.2 mM or more, purified recombinant protein
[2] = molecular target: hnRNP A1 UP1 (Homo sapiens) (UniProt P09651); experiment: NMR; conditions: 10 mM sodium phosphate pH 6.5, 1 mM DTT, protein at 0.2 mM or more, purified recombinant protein
UP1 = UP1 (UniProt P09651); experiment: NMR titration; conditions: broad lines; NMR: 10 mM NaPi pH 6.5, 1 mM DTT (303 K stated for UP1-R140A:ISS-N1-u25g); recombinant protein
hnRNP A1 RRM1 [3] = molecular target: hnRNP A1 RRM1 (UniProt P09651); experiment: NMR titration; conditions: fast exchange; NMR: 10 mM NaPi pH 6.5, 1 mM DTT (303 K stated for UP1-R140A:ISS-N1-u25g); recombinant protein; residues 2-97
hnRNP A1 RRM1 [4] = molecular target: hnRNP A1 RRM1 (UniProt P09651); experiment: ITC; conditions: ITC: 10 mM NaPi pH 6.5, 10 mM 2-mercaptoethanol, 30 C, protein titrated into RNA; recombinant protein; residues 2-97
hnRNP A1 RRM1 R55A = hnRNP A1 RRM1 R55A (UniProt P09651); experiment: ITC; conditions: ITC: 10 mM NaPi pH 6.5, 10 mM 2-mercaptoethanol, 30 C, protein titrated into RNA; recombinant protein; residues 2-97
hnRNP A1 RRM1 R92A = hnRNP A1 RRM1 R92A (UniProt P09651); experiment: ITC; conditions: ITC: 10 mM NaPi pH 6.5, 10 mM 2-mercaptoethanol, 30 C, protein titrated into RNA; recombinant protein; residues 2-97

GGACCAGCAUUAUGAAAGGGA [ISS-N1-u25g]: binds ([1]; variant of ISS-N1); binds ([2]; variant of ISS-N1); binds (UP1).
GGACCAGCAUUAUGAAAGUGA [ISS-N1]: binds [1]; binds [2].
GGACCAGGAUUAUGAAAGUGC [ISS-N1-c14g]: binds (UP1).
With UCAGUU the binding result (hnRNP A1 RRM1 [3]) was “binds more weakly” and the Kd (hnRNP A1 RRM1 [4]) was > 10 µM.
In the case of UUAGGUC, the Kd (hnRNP A1 RRM1 R55A) is reported as > 10 µM.
For UUAGUU, the Kd (hnRNP A1 RRM1 R92A) was > 10 µM.

For some of these results: Weaker means in comparison with the reference protein, sequence or condition of that experiment. For some of these results: The exact form of at least one protein or probe is not confirmed. For some of these results: At least one verdict rests on a figure or table, not on a statement of the authors.
